Experimental data taken from PubChem BioAssay AID1347076 (National Center for Advancing Translational Sciences (NCATS), 2019).
Out of some 400,000 compounds screened, about 13,000 (3.2%) were called active. This list was built around the results that the source calls inconclusive (neither active nor inactive); the mix of calls is not that of the screen. Calls follow the shape of the dose curve; as a rule, active = well fitted cell-killing curve with a large enough effect; inconclusive = small, poorly fitted or top-dose-only effect, or effect the other way; inactive = flat fitted curve, though single readings scatter. Where the call is inconclusive, the potency comes from a doubtful curve fit.
Potency is read from the fitted curve at half-maximal effect.

Assay: qHTS assay for MDR1-selective chemotherapeutics: Primary screen using the drug-selected MDR subline cells KB-V1; also: nearly all actives have a fitted effect of over 60% in size
Details: KB-V1 MDR cells viability, CellTiter-Glo, 72 h; series mostly up to 46.1 µM
How it was run: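 Luminescent ATP read-out (CellTiter-Glo, 10 min) measures survival of drug-selected KB-V1 MDR cells after 72 h, 37 degrees C compound exposure. Medium: phenol-red-free DMEM, 10% FBS. Values from fitted concentration-response curves.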
With Cc1cc2oc(=O)c(CC(=O)NCCCN(C)C)c(C)c2c2occ(C(C)(C)C)c12 the Potency was inconclusive: 20.6 µM [cytotoxic, single point].
With COc1ccc(NC(=S)NC(=O)c2cccnc2)cc1 the Potency was inconclusive: 25.9 µM [rising, single point].
For CCOC(=O)C1CCCN(C2=NC(=O)/C(=C/c3ccc(O)c(OCC)c3)S2)C1 (centres undefined), the Potency was inconclusive: 1.3 µM [cytotoxic, full curve, poor fit].
With Nc1nc(SCC(=O)N2CCN(c3ccccc3)CC2)n[nH]1 the Potency was inconclusive: 18.4 µM [rising, single point].
For O=C(NC(=S)Nc1ccccc1O)c1cncc(Br)c1, the Potency was inconclusive: 20.6 µM [cytotoxic, single point].
For Cc1cccc(C)c1NC(=O)CSc1cc(C(=O)c2nccn2C)c2ccccc2n1, the Potency was inconclusive: 23.1 µM [cytotoxic, single point].
In the case of CC(=O)c1cccc(NC(=O)Cn2cnc(S(=O)(=O)N3CCCCC3)c2)c1, the Potency is reported as inconclusive: 0.326 µM [rising, full curve, poor fit].
For Cc1ccc(C2=NOC(=O)/C2=C\C=C\c2ccccc2)cc1, the Potency was inconclusive: 20.6 µM [cytotoxic, single point].
In the case of CNc1nc(Nc2ccc(Br)cc2)nc(N)c1[N+](=O)[O-], the Potency is reported as inconclusive: 0.0052 µM [cytotoxic, full curve, poor fit].
For CCCC[C@H]1COCCS(=O)(=O)N1Cc1ccc(C)cc1, the Potency was active: 16.4 µM.
In the case of Cc1ccc(-c2cc(C(=O)N3CCN(S(=O)(=O)c4ccc(Br)s4)CC3)[nH]n2)cc1C, the Potency is reported as “inactive”.
With CN(C)c1cc[n+](Cc2c(Cl)cccc2Cl)cc1 the Potency was “inactive”.
For COc1cc(S(=O)(=O)N2CCN=C2c2ccccc2)ccc1Cl, the Potency was active: 16.4 µM.
For COc1cc(CNCCNC(=O)c2nonc2N)ccc1OCc1ccc(Cl)cc1, the Potency was inconclusive: 4.61 µM [cytotoxic, full curve].
With CSc1nc(N)nc2c1ncn2CC(=O)NCc1ccc2[nH]ccc2c1 the Potency was “inactive”.
In the case of COc1cccc(OC)c1C(=O)Nc1cc(Cl)ccc1N1CCOCC1, the Potency is reported as inconclusive: 16.4 µM [cytotoxic, single point].
In the case of CCN(CC)C(=O)C1CCCN(C(=O)c2oc3ccc(C)cc3c2C)C1 (centres undefined), the Potency is reported as inconclusive: 5.8 µM [cytotoxic, partial curve].
For O=C(Cn1nnc(-c2ccc(F)cc2)n1)Nc1ccc2c(c1)OCCO2, the Potency was inconclusive: 16.4 µM [cytotoxic, partial curve].
With Cc1ccc(C)c(NC(=O)Cn2c(=O)n(Cc3nc(C)no3)c(=O)c3cc4c(cc32)OCO4)c1 the Potency was “inactive”.
